Experimental data published in patent US11534398B2, “Inhaled preparation of isoglycyrrhizic acid or salt thereof, and use in preparing drugs for treating respiratory system diseases” (priority 2016, dated 2022).

System: lipopolysaccharide-induced COPD mice
Test: Lipopolysaccharide-induced COPD mice, inflammatory cells (WBC) in bronchial airways
Assay type: in vivo, ICR mice
Details: BALF; positive control group b.i.d., nebulizing 30 min

Q: With `COc1ccc(C[C@@H](C)NC[C@H](O)c2ccc(O)c(NC=O)c2)cc1` [Arformoterol] as the molecule, how does the WBC read?
A: 0.5310 ± 0.1424 109/L
